In publication PMC7086158 one finds binding data, which are given here for four molecules.

By UniProt entry, the sequences of proteins in these tests, tags left out.
UniProt O75533: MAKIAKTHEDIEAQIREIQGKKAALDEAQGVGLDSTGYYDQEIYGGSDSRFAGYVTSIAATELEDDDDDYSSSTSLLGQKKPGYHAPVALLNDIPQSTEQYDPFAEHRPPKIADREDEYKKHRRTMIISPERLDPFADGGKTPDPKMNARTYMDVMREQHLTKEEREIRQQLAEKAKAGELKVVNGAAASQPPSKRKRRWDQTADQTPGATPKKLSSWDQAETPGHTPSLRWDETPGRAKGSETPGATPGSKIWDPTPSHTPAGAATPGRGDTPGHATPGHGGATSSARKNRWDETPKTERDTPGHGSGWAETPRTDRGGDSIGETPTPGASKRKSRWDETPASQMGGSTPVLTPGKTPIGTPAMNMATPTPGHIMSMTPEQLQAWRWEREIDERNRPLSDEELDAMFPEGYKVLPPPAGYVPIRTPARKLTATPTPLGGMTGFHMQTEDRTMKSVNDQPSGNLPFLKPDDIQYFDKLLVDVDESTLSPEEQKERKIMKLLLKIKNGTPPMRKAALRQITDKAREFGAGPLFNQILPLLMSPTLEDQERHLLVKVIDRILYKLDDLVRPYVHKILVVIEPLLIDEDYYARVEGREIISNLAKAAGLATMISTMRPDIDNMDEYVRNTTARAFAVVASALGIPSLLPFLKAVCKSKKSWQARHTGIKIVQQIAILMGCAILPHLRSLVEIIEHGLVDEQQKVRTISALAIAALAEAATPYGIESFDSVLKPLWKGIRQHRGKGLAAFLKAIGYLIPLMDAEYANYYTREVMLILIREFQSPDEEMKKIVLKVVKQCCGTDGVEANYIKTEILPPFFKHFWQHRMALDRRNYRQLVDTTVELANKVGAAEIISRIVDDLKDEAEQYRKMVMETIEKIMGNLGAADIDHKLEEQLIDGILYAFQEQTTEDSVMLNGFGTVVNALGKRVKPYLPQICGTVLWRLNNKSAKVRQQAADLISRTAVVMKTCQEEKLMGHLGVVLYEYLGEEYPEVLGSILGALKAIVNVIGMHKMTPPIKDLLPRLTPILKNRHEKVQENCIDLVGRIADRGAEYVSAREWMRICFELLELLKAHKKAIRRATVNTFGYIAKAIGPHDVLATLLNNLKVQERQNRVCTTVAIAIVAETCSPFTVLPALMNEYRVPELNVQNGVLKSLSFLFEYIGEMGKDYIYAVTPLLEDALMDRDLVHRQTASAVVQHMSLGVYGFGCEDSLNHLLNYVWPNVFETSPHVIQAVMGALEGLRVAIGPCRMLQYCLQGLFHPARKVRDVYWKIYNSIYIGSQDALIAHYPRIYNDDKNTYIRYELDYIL
UniProt P62140: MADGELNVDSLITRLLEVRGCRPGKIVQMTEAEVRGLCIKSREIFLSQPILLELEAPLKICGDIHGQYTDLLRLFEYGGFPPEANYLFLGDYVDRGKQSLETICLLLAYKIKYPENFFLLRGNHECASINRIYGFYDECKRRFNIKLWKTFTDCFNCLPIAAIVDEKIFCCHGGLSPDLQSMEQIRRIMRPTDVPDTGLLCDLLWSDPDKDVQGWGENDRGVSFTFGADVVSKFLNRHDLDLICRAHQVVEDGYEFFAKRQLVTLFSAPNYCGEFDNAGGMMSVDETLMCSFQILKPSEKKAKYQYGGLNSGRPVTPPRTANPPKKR

These are yes or no findings as the source states them, for the method shown. Binding seen in cells or lysates may run through a third protein. Some entries that bind do so weakly or less than the wild type. For part of these data: Sequences can lack the tags named with a protein.

For experiment [1], the target named is T1, NUAK1 (endogenous in U2OS cells) (human (endogenous in U2OS)) (UniProt O60285).
T1 sequence: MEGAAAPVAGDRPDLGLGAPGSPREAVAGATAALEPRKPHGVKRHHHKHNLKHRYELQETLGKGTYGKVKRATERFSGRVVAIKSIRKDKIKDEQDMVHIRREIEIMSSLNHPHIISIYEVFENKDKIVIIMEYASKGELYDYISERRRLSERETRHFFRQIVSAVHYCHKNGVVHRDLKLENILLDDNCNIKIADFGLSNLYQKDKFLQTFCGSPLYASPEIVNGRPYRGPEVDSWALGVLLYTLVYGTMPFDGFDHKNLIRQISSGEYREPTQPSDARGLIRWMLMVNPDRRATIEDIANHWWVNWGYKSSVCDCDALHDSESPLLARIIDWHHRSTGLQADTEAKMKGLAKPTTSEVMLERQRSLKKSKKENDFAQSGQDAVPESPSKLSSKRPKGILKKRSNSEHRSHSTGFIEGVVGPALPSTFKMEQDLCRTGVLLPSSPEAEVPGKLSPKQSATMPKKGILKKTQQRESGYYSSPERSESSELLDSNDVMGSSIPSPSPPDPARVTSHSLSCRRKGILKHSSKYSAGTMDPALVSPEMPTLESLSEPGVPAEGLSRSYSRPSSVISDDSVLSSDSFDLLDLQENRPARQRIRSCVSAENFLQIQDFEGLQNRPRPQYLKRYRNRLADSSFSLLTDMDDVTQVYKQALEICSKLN
Put plainly: proximity ligation; Duolink In Situ PLA in fixed U2OS cells (Figure 1I).

In experiment [2] the target is T2, C-terminally FLAG-tagged murine Nuak1 (mouse) (UniProt Q641K5).
T2 sequence: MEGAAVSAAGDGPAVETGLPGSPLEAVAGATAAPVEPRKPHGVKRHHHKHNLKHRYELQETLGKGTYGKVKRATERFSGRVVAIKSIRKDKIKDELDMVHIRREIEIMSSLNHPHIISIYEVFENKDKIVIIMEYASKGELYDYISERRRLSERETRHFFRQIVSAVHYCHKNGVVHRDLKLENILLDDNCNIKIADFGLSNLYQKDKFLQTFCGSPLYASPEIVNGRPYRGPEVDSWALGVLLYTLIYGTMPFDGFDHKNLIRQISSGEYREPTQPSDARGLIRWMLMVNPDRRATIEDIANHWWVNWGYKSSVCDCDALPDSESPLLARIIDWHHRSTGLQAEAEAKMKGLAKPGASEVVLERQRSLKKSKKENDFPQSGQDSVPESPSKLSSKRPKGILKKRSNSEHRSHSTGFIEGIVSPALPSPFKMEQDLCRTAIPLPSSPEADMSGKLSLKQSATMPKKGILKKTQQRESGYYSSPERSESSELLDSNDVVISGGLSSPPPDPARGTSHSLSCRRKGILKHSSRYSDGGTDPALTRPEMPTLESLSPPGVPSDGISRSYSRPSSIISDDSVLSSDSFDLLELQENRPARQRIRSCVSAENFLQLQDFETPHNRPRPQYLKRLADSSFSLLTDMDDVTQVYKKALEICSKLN
Kind of experiment: co-IP; anti-FLAG immunoprecipitation from lysates of U2OS cells stably expressing N- or C-terminally FLAG-tagged NUAK1, immunoblot (Figure S1C). On the technique in general: A western blot detects proteins with antibodies after separation by electrophoresis.

The target in experiment [3] is T3, N-terminally FLAG-tagged murine Nuak1 (mouse) (UniProt Q641K5).
T3 sequence: T2 sequence
The experiment is described as above.

In experiment [4] the target is T4, HA-tagged NUAK1 (mouse) (UniProt Q641K5).
T4 sequence: T2 sequence
Put plainly: proximity ligation; Duolink In Situ PLA in U2OS cells expressing HA-tagged NUAK1 or empty vector, treated for 3 h with 50 uM GILK or control peptide (Figure 2D).

Experiment [5] has as its target SF3B1 (human (endogenous in U2OS)) (UniProt O75533). Put plainly: proximity ligation; Duolink In Situ PLA in fixed U2OS cells (Figure 1I).
For experiment [6], the target named is T4, HA-tagged NUAK1 (mouse). Put plainly: proximity ligation; Duolink In Situ PLA in fixed U2OS cells expressing HA-tagged NUAK1 or empty vector (Figure 2B).
For experiment [7], the target named is T4, HA-tagged NUAK1 (mouse). Kind of experiment: co-IP; anti-HA immunoprecipitates of U2OS cells expressing HA-tagged NUAK1 or empty vector, HEGN buffer (140 mM KCl, 0.1% NP-40), immunoblot.
Experiment [8] deals with protein phosphatase catalytic subunit beta (PPP1CB) (human (endogenous in U2OS)) (UniProt P62140). Put plainly: proximity ligation; as a6: the GILK peptide added to the culture medium (50 uM, 3 h) displaces HA-NUAK1 from PPP1CB in cells; only the binder purified.

For the molecule SF3B1 (from UniProt O75533 1-1304), the binding entry in experiment [1] is listed as “binds”.

For “protein phosphatase catalytic subunit beta (PPP1CB) (from UniProt P62140 1-327) (enzyme)”, the binding entry (in experiment [2]; in experiment [3]; with HA-tagged NUAK1 (mouse) [4]) was “binds” in each case.

B1: PNUTS (PP1-nuclear targeting subunit) (protein, UniProt Q96QC0 1-940)
chain: MGSGPIDPKELLKGLDSFLNRDGEVKSVDGISKIFSLMKEARKMVSRCTYLNILLQTRSPEILVKFIDVGGYKLLNNWLTYSKTTNNIPLLQQILLTLQHLPLTVDHLKQNNTAKLVKQLSKSSEDEELRKLASVLVSDWMAVIRSQSSTQPAEKDKKKRKDEGKSRTTLPERPLTEVKAETRAEEAPEKKREKPKSLRTTAPSHAKFRSTGLELETPSLVPVKKNASTVVVSDKYNLKPIPLKRQSNVAAPGDATPPAEKKYKPLNTTPNATKEIKVKIIPPQPMEGLGFLDALNSAPVPGIKIKKKKKVLSPTAAKPSPFEGKTSTEPSTAKPSSPEPAPPSEAMDADRPGTPVPPVEVPELMDTASLEPGALDAKPVESPGDPNQLTRKGRKRKSVTWPEEGKLREYFYFELDETERVNVNKIKDFGEAAKREILSDRHAFETARRLSHDNMEEKVPWVCPRPLVLPSPLVTPGSNSQERYIQAEREKGILQELFLNKESPHEPDPEPYEPIPPKLIPLDEECSMDETPYVETLEPGGSGGSPDGAGGSKLPPVLANLMGSMGAGKGPQGPGGGGINVQEILTSIMGSPNSHPSEELLKQPDYSDKIKQMLVPHGLLGPGPIANGFPPGGPGGPKGMQHFPPGPGGPMPGPHGGPGGPVGPRLLGPPPPPRGGDPFWDGPGDPMRGGPMRGGPGPGPGPYHRGRGGRGGNEPPPPPPPFRGARGGRSGGGPPNGRGGPGGGMVGGGGHRPHEGPGGGMGNSSGHRPHEGPGGGMGSGHRPHEGPGGSMGGGGGHRPHEGPGGGISGGSGHRPHEGPGGGMGAGGGHRPHEGPGGSMGGSGGHRPHEGPGHGGPHGHRPHDVPGHRGHDHRGPPPHEHRGHDGPGHGGGGHRGHDGGHSHGGDMSNRPVCRHFMMKGNCRYENNCAFYHPGVNGPPLP
As to B1, the binding entry (in experiment [5]; with HA-tagged NUAK1 (mouse) [6]; with HA-tagged NUAK1 (mouse) [7]; with HA-tagged NUAK1 (mouse) [4]) was “binds” throughout.

B2: Stearyl-R8-… peptide (peptide)
peptide: RRRRRRRRKRPKGILKKRS
modifications: stearyl on the N-terminus
Take B2: in experiment [8], the binding result is listed as “binds”.
